{"source": "PubChem BioAssay AID504764, Drosophila RNAi Screening Center – 2011", "screen": "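Genome-wide screen for regulators of Notch-driven gene expression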 (primary screen)", "system": "Drosophila Kc167 cells", "reagent": "long dsRNA against Drosophila genes", "duration": "about 5 days (4 days dsRNA, then 24 h after transfection)", "treatment": "transfection of constitutively active membrane-tethered Notch lacking the extracellular domain, read 24 h later", "measurement": "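Light from a Notch-responsive E(spl)m3 luciferase reporter under active Notch, with control-promoter and no-Notch reporter wells to normalise; raw counts from paired wells a and b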", "reading the numbers": "induced reporter light, run 1, well a and induced reporter light, run 1, well b: higher = more light from the Notch target reporter with active Notch; control promoter light, run 1, well a and control promoter light, run 1, well b: higher = more light from the viral control promoter (cell number, transfection, viability); uninduced reporter light, run 1, well a: higher = more light from the Notch target reporter without active Notch", "rule for the call": "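Hit if the duplicate-averaged log2 ratio of induced to control-promoter light gives a plate-wise z beyond ±2, or induced to uninduced beyond ±1.8; weak-control or discordant-duplicate wells dropped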", "calls": "active = modifier hit (raised or lowered Notch signal); inactive = not a hit", "note": "In all, the deposit lists about 22,000 reagents; below is an unselected part of those that have a named target and a result. Over the whole deposit, 403 (1.9%) are marked active. 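Unnormalised raw counts per well; ratio z-scores behind the hit calls and whether each hit raises or lowers signal are not deposited.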 Names joined by + are all predicted targets of the reagent. Not given: the amount of reagent."}
{"target": "al (aristaless)", "DRSC id": "DRSC00799", "induced reporter light, run 1, well a": 84485, "induced reporter light, run 1, well b": 83935, "control promoter light, run 1, well a": 61995, "control promoter light, run 1, well b": 34875, "uninduced reporter light, run 1, well a": 7900, "Call": "active"}
{"target": "Atg3 (Autophagy-related 3)", "DRSC id": "DRSC10736", "induced reporter light, run 1, well a": 1.28e5, "induced reporter light, run 1, well b": 1.20e5, "control promoter light, run 1, well a": 75790, "control promoter light, run 1, well b": 92330, "uninduced reporter light, run 1, well a": 9050, "Call": "inactive"}
{"target": "Cog3 (Component of oligomeric golgi complex 3)", "DRSC id": "DRSC00585", "induced reporter light, run 1, well a": 1.53e5, "induced reporter light, run 1, well b": 1.66e5, "control promoter light, run 1, well a": 1.48e5, "control promoter light, run 1, well b": 1.58e5, "uninduced reporter light, run 1, well a": 13190, "Call": "inactive"}
{"target": "CG6893", "DRSC id": "DRSC10742", "induced reporter light, run 1, well a": 2.50e5, "induced reporter light, run 1, well b": 2.31e5, "control promoter light, run 1, well a": 2.80e5, "control promoter light, run 1, well b": 2.95e5, "uninduced reporter light, run 1, well a": 13405, "Call": "inactive"}
{"target": "barr (barren)", "DRSC id": "DRSC03488", "induced reporter light, run 1, well a": 39870, "induced reporter light, run 1, well b": 33355, "control promoter light, run 1, well a": 42865, "control promoter light, run 1, well b": 25605, "uninduced reporter light, run 1, well a": 2910, "Call": "inactive"}
{"target": "Dhdds (Dehydrodolichyl diphosphate synthase subunit)", "DRSC id": "DRSC17756", "induced reporter light, run 1, well a": 1.46e5, "induced reporter light, run 1, well b": 1.35e5, "control promoter light, run 1, well a": 2.42e5, "control promoter light, run 1, well b": 2.58e5, "uninduced reporter light, run 1, well a": 10320, "Call": "inactive"}
{"target": "CG9691", "DRSC id": "DRSC18441", "induced reporter light, run 1, well a": 1.31e5, "induced reporter light, run 1, well b": 1.22e5, "control promoter light, run 1, well a": 2.46e5, "control promoter light, run 1, well b": 2.63e5, "uninduced reporter light, run 1, well a": 10355, "Call": "inactive"}
{"target": "imd (immune deficiency)", "DRSC id": "DRSC05928", "induced reporter light, run 1, well a": 1.17e5, "induced reporter light, run 1, well b": 1.05e5, "control promoter light, run 1, well a": 2.01e5, "control promoter light, run 1, well b": 2.21e5, "uninduced reporter light, run 1, well a": 9865, "Call": "inactive"}
{"target": "CG12519", "DRSC id": "DRSC10311", "induced reporter light, run 1, well a": 2.50e5, "induced reporter light, run 1, well b": 1.27e5, "control promoter light, run 1, well a": 1.12e5, "control promoter light, run 1, well b": 85585, "uninduced reporter light, run 1, well a": 9315, "Call": "inactive"}
{"target": "CG12519", "DRSC id": "DRSC21549", "Call": "inactive"}
{"target": "VhaAC39-2 (Vacuolar H[+] ATPase AC39 subunit 2)", "DRSC id": "DRSC15609", "induced reporter light, run 1, well a": 1.35e5, "induced reporter light, run 1, well b": 1.38e5, "control promoter light, run 1, well a": 1.62e5, "control promoter light, run 1, well b": 1.80e5, "uninduced reporter light, run 1, well a": 11925, "Call": "inactive"}
{"target": "Fmo-1 (Flavin-containing monooxygenase 1)", "DRSC id": "DRSC04328", "induced reporter light, run 1, well a": 1.81e5, "induced reporter light, run 1, well b": 1.83e5, "control promoter light, run 1, well a": 1.60e5, "control promoter light, run 1, well b": 1.88e5, "uninduced reporter light, run 1, well a": 15750, "Call": "inactive"}
{"target": "CG31191", "DRSC id": "DRSC13455", "induced reporter light, run 1, well a": 70150, "induced reporter light, run 1, well b": 65070, "control promoter light, run 1, well a": 81325, "control promoter light, run 1, well b": 90115, "uninduced reporter light, run 1, well a": 7850, "Call": "inactive"}
{"target": "CG31191", "DRSC id": "DRSC15214", "induced reporter light, run 1, well a": 29450, "induced reporter light, run 1, well b": 31920, "control promoter light, run 1, well a": 27195, "control promoter light, run 1, well b": 32750, "uninduced reporter light, run 1, well a": 1760, "Call": "inactive"}
{"target": "CG31191", "DRSC id": "DRSC15215", "induced reporter light, run 1, well a": 38965, "induced reporter light, run 1, well b": 33950, "control promoter light, run 1, well a": 24730, "control promoter light, run 1, well b": 24142, "uninduced reporter light, run 1, well a": 6710, "Call": "inactive"}
{"target": "CG9377", "DRSC id": "DRSC03217", "induced reporter light, run 1, well a": 1.98e5, "induced reporter light, run 1, well b": 1.90e5, "control promoter light, run 1, well a": 1.52e5, "control promoter light, run 1, well b": 1.80e5, "uninduced reporter light, run 1, well a": 12560, "Call": "inactive"}
{"target": "Abcd1 (ATP binding cassette subfamily D member 1)", "DRSC id": "DRSC17157", "induced reporter light, run 1, well a": 2.34e5, "induced reporter light, run 1, well b": 1.84e5, "control promoter light, run 1, well a": 3.26e5, "control promoter light, run 1, well b": 2.85e5, "uninduced reporter light, run 1, well a": 15995, "Call": "inactive"}
{"target": "CG6788 + CR32496", "DRSC id": "DRSC22043", "Call": "inactive"}
{"target": "CG34323", "DRSC id": "DRSC18916", "induced reporter light, run 1, well a": 77900, "induced reporter light, run 1, well b": 70630, "control promoter light, run 1, well a": 78680, "control promoter light, run 1, well b": 62425, "uninduced reporter light, run 1, well a": 5285, "Call": "inactive"}
{"target": "PI31 (Proteasome inhibitor 31 kDa)", "DRSC id": "DRSC07306", "induced reporter light, run 1, well a": 1.12e5, "induced reporter light, run 1, well b": 1.15e5, "control promoter light, run 1, well a": 90120, "control promoter light, run 1, well b": 99090, "uninduced reporter light, run 1, well a": 9392, "Call": "inactive"}
{"target": "Orp8 (Oxysterol-binding protein-related protein 8)", "DRSC id": "DRSC15110", "induced reporter light, run 1, well a": 1.88e5, "induced reporter light, run 1, well b": 2.00e5, "control promoter light, run 1, well a": 2.00e5, "control promoter light, run 1, well b": 1.64e5, "uninduced reporter light, run 1, well a": 14895, "Call": "inactive"}
{"target": "Orp8 (Oxysterol-binding protein-related protein 8)", "DRSC id": "DRSC15712", "induced reporter light, run 1, well a": 1.33e5, "induced reporter light, run 1, well b": 1.41e5, "control promoter light, run 1, well a": 1.96e5, "control promoter light, run 1, well b": 1.95e5, "uninduced reporter light, run 1, well a": 10070, "Call": "inactive"}
{"target": "CecA2 (Cecropin A2)", "DRSC id": "DRSC16604", "induced reporter light, run 1, well a": 1.22e5, "induced reporter light, run 1, well b": 1.49e5, "control promoter light, run 1, well a": 1.53e5, "control promoter light, run 1, well b": 1.38e5, "uninduced reporter light, run 1, well a": 9805, "Call": "inactive"}
{"target": "HBS1", "DRSC id": "DRSC08544", "induced reporter light, run 1, well a": 1.12e5, "induced reporter light, run 1, well b": 83515, "control promoter light, run 1, well a": 1.59e5, "control promoter light, run 1, well b": 1.62e5, "uninduced reporter light, run 1, well a": 9400, "Call": "inactive"}

No new results follow: an excerpt of the list.
{"target": "VhaAC39-2 (Vacuolar H[+] ATPase AC39 subunit 2)", "DRSC id": "DRSC15609", "induced reporter light, run 1, well a": 1.35e5, "induced reporter light, run 1, well b": 1.38e5, "control promoter light, run 1, well a": 1.62e5, "control promoter light, run 1, well b": 1.80e5, "uninduced reporter light, run 1, well a": 11925, "Call": "inactive"}
{"target": "Fmo-1 (Flavin-containing monooxygenase 1)", "DRSC id": "DRSC04328", "induced reporter light, run 1, well a": 1.81e5, "induced reporter light, run 1, well b": 1.83e5, "control promoter light, run 1, well a": 1.60e5, "control promoter light, run 1, well b": 1.88e5, "uninduced reporter light, run 1, well a": 15750, "Call": "inactive"}
{"target": "CG31191", "DRSC id": "DRSC13455", "induced reporter light, run 1, well a": 70150, "induced reporter light, run 1, well b": 65070, "control promoter light, run 1, well a": 81325, "control promoter light, run 1, well b": 90115, "uninduced reporter light, run 1, well a": 7850, "Call": "inactive"}
